PubChem BioAssay AID493246, Drosophila RNAi Screening Center | 2011
The screen tested about 21,000 reagents; below is a random part of those that have a named target and a result. Over the whole deposit, 429 (2%) got an active call. 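Values are raw and not normalised between plates; calls rest on per-plate z-scores that were not deposited.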 Entries without a mark were called inactive. The record does not give: the amount of reagent, the time to read-out.

Test: 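Identify essential fly genes by loss of cell viability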 (primary screen)
Cells: Drosophila Kc and S2R+ cells
Knock-down reagent: long dsRNA against Drosophila genes
Read-out: 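Cell number per well after knock-down, printed as raw plate values; calls were based on per-plate z-scores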
Reading the numbers: Kc cell number and S2R+ cell number: higher = more cells remaining
Call rule: 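Counted as a hit if cell number falls by a z-score of at least 3 within its plate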

| Target gene | PubChem SID | Kc cell number, rep 1 | Kc cell number, rep 2 | S2R+ cell number, rep 1 | S2R+ cell number, rep 2 |
| --- | --- | --- | --- | --- | --- |
| CG14397 | SID104182173 | 1.62e6 | 1.69e6 | 1.30e6 | 3.88e5 |
| CG32533 | SID104199235 | 1.79e6 | 1.78e6 | 1.12e6 | 1.20e6 |
| CG32533 | SID104199345 | 1.47e6 | 1.48e6 | 1.05e6 | 1.11e6 |
| CG14107 | SID104189902 | 1.67e6 | 1.60e6 | 1.20e6 | 1.26e6 |
| CG14642 | SID104192020 | 1.66e6 | 1.66e6 | 1.25e6 | 1.41e6 |
| Rab3 | SID104187315 | 1.46e6 | 1.58e6 | 1.03e6 | 1.09e6 |
| pain (painless) | SID104184065 | 1.56e6 | 1.68e6 | 1.46e6 | 1.65e6 |
| CG15283 | SID104181772 | 1.65e6 | 1.72e6 | 1.30e6 | 1.70e6 |
| Rgl (Ral guanine nucleotide dissociation stimulator-like) | SID104191059 | 1.76e6 | 1.79e6 | 1.39e6 | 1.41e6 |
| CG1690 | SID104186428 | 1.89e6 | 2.03e6 | 1.36e6 | 1.54e6 |
| stas (Stasimon) | SID104199896 | 1.76e6 | 1.74e6 | 1.10e6 | 1.19e6 |
| Obsc (Obscurin) | SID104184094 | 1.36e6 | 1.52e6 | 1.08e6 | 1.03e6 |
| Obsc (Obscurin) | SID104184095 | 1.74e6 | 1.82e6 | 1.44e6 | 1.52e6 |
| Obsc (Obscurin) | SID104184222 | 1.47e6 | 1.56e6 | 1.22e6 | 1.33e6 |

Ordered by “Kc cell number, rep 1” (high to low): some entries from above
| Target gene | PubChem SID | Kc cell number, rep 1 | Kc cell number, rep 2 | S2R+ cell number, rep 1 | S2R+ cell number, rep 2 |
| --- | --- | --- | --- | --- | --- |
| CG14107 | SID104189902 | 1.67e6 | 1.60e6 | 1.20e6 | 1.26e6 |
| CG32533 | SID104199345 | 1.47e6 | 1.48e6 | 1.05e6 | 1.11e6 |

More reagents follow:
| Target gene | PubChem SID | Kc cell number, rep 1 | Kc cell number, rep 2 | S2R+ cell number, rep 1 | S2R+ cell number, rep 2 |
| --- | --- | --- | --- | --- | --- |
| CG3556 | SID104198101 | 6.09e5 | – | 9.04e5 | – |
| shep (alan shepard) | SID104188540 | 1.33e6 (active) | 1.34e6 | 6.37e5 | 7.73e5 |
| shep (alan shepard) | SID104189557 | 1.47e6 | 1.52e6 | 1.16e6 | 1.21e6 |
| shep (alan shepard) | SID104189563 | 1.51e6 | 1.45e6 | 1.35e6 | 1.33e6 |
| Tsp29Fa (Tetraspanin 29Fa) | SID104183024 | 1.61e6 | 1.68e6 | 1.12e6 | 1.22e6 |
| babos | SID104183715 | 5.29e5 | – | 9.20e5 | – |
| babos | SID104184189 | 1.36e6 | 1.47e6 | 1.03e6 | 1.16e6 |
| CG9467 | SID104196290 | 1.49e6 | 1.56e6 | 1.30e6 | 1.36e6 |
| Cen (Centrocortin) | SID104182496 | 9.05e5 | 1.08e6 | 7.99e5 | 6.57e5 |
| ZnT63C (Zinc transporter 63C) | SID104187824 | 1.60e6 | 1.40e6 | 1.04e6 | 1.22e6 |
| ZnT63C (Zinc transporter 63C) | SID104187825 | 1.47e6 | 1.53e6 | 9.57e5 | 1.13e6 |
| ZnT63C (Zinc transporter 63C) | SID104188311 | 1.46e6 | 1.47e6 | 1.31e6 | 1.25e6 |
